In the supplement of paper PMC3334620:
Whole data set: some 33,000 sequences, median “E-score (-0.5 to 0.5)” near -0.0034, cut for the highest 2% near 0.25. This is one part of the list.

target: T1, Yap3 (UniProt P38749); experiment: PBM E-score (8-mer binding enrichment) (E-score (-0.5 to 0.5)); higher = stronger / more preferred TF binding; conditions: protein concentration: 100 nM; construct: GST-full length
T1 sequence: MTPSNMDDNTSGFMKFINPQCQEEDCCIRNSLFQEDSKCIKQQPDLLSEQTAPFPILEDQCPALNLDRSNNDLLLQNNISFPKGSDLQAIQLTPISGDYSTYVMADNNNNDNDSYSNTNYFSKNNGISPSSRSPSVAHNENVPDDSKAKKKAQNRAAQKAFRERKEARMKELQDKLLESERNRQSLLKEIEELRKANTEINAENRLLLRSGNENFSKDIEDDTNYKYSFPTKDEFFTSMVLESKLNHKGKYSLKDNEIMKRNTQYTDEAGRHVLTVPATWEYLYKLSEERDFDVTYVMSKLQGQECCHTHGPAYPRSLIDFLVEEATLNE
Summary of the method: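 E-scores (a modified Wilcoxon-Mann-Whitney statistic) were assigned by the Universal PBM Analysis Suite to every ungapped eight-base word pooled with its reverse complement. The input came from universal all-10-mer Agilent arrays made double-stranded by primer extension and probed with GST-tagged yeast transcription factors at about 100-200 nM. Fluorescent anti-GST detected bound protein, and masliner normalised the scans.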

Compared with ATCTCGTA, AAGCTATA is lower in “PBM E-score” value: 0.0784 for the first, -0.0235 for the second.

Going from GTTGCGTA to CGAAATAC, the “PBM E-score” value rises from 0.0691 to 0.151.

Compared with AGGTCAAG, CCCGCTTA is higher in “PBM E-score” value: -0.167 for the first, 0.111 for the second.

Going from GCAGCTCC to CGTAACGC, the “PBM E-score” value rises from -0.194 to -0.0157.

Going from CAGCCATG to AGCAAATA, the “PBM E-score” value rises from -0.0386 to 0.0245.

Compared with GGCTCTAA, CAAGGGTC is lower in “PBM E-score” value: 0.00316 for the first, -0.0382 for the second.

First: GGGTTGCA
Second: AAGATTGC
The “PBM E-score” value of the first is higher: -0.0127 for the first, -0.0678 for the second.

Compared with CTGCGTGA, GGTATGAA is higher in “PBM E-score” value: 0.0181 for the first, 0.146 for the second.

Going from AAAGTTAT to CCAGATAG, the “PBM E-score” value falls from 0.192 to -0.0894.

Going from CGGTATTC to ATGGAGAC, the “PBM E-score” value falls from 0.119 to 0.0733.

First: GAGCCCAA
Second: CTCGAGTC
The “PBM E-score” value of the first is higher: 0.0486 for the first, 0.00476 for the second.

Compared with CATGCACC, ATTATATC is higher in “PBM E-score” value: -0.191 for the first, 0.16 for the second.

Going from GGCAGATA to CCCACCGA, the “PBM E-score” value rises from -0.0297 to -0.00222.

Going from TAATCTGA to ACGCTTTA, the “PBM E-score” value falls from 0.109 to -0.00756.

Going from CAGGTCAC to CGATTTCC, the “PBM E-score” value rises from -0.324 to 0.0259.

First: CTATCTGA
Second: GCCGTCGC
The “PBM E-score” value of the first is lower: -0.111 for the first, -0.0101 for the second.

Compared with CATCCACA, CGACCATC is lower in “PBM E-score” value: -0.015 for the first, -0.17 for the second.

First: ATGTGCTA
Second: AACTTGAG
The “PBM E-score” value of the first is higher: -0.0154 for the first, -0.163 for the second.

Compared with GTCCCACA, AGTAACTC is lower in “PBM E-score” value: 0.157 for the first, -0.0684 for the second.

First: ATCGAAGG
Second: GTGTGAAA
The “PBM E-score” value of the first is lower: 0.0368 for the first, 0.133 for the second.

First: GTAGTACA
Second: ATCACGAT
The “PBM E-score” value of the first is higher: 0.14 for the first, -0.192 for the second.

Going from GGACAGGA to ACGCTAAG, the “PBM E-score” value rises from -0.149 to -0.0131.

Compared with CTTGTCCC, ATTTCGAA is higher in “PBM E-score” value: 0.0214 for the first, 0.261 for the second.

Compared with GAAACTCC, CTTTTATC is higher in “PBM E-score” value: -0.238 for the first, 0.178 for the second.

First: ACATGACC
Second: TCAGATCA
The “PBM E-score” value of the first is higher: -0.0596 for the first, -0.0696 for the second.

Compared with GTACGAGA, AGTAAGAC is higher in “PBM E-score” value: -0.0384 for the first, 0.0181 for the second.

Compared with GGTGAAAC, ACGCAGAG is higher in “PBM E-score” value: -0.0882 for the first, -0.0117 for the second.

Going from GGTTAAGA to AGTGTGGG, the “PBM E-score” value falls from 0.0435 to -0.0508.

Going from GGCGATTA to AGCAAAGG, the “PBM E-score” value rises from -0.0177 to 0.0634.

Going from AATGCTAA to CAGGCGAC, the “PBM E-score” value falls from 0.0709 to -0.196.

Compared with AGCCGAGG, AATTTGAA is higher in “PBM E-score” value: -0.052 for the first, 0.131 for the second.

Going from GATCTAGC to CCGATAAG, the “PBM E-score” value rises from -0.085 to -0.051.

First: CTATATGC
Second: CGACGCTA
The “PBM E-score” value of the first is higher: 0.124 for the first, -0.0831 for the second.

First: CATAAGCA
Second: TAACACCA
The “PBM E-score” value of the first is lower: -0.0415 for the first, 0.0743 for the second.

Compared with AACATACT, ACATGTTA is higher in “PBM E-score” value: 0.012 for the first, 0.203 for the second.

First: CTAGTATC
Second: ACCGCAGA
The “PBM E-score” value of the first is higher: 0.0604 for the first, -0.219 for the second.

First: GCTTATAA
Second: AGGTCTAT
The “PBM E-score” value of the first is higher: 0.129 for the first, -0.0472 for the second.

Compared with AGATCAAT, TCTCGAGA is higher in “PBM E-score” value: 0.0101 for the first, 0.112 for the second.

Compared with AGTCTGGC, CGAACATC is higher in “PBM E-score” value: -0.173 for the first, 0.0605 for the second.

First: GTCCCAGA
Second: ACGACAGT
The “PBM E-score” value of the first is lower: -0.252 for the first, -0.0361 for the second.

Going from AATACTCA to TACGCGCA, the “PBM E-score” value falls from 0.16 to 0.134.

Going from ATAGTGGC to ATAGGGGG, the “PBM E-score” value falls from 0.0134 to -0.194.

First: AGTGGAGA
Second: CTCACGAC
The “PBM E-score” value of the first is higher: 0.139 for the first, -0.195 for the second.

First: CCCAAAAG
Second: AAGGCTGG
The “PBM E-score” value of the first is higher: -0.165 for the first, -0.241 for the second.

First: GATTGAAA
Second: AGCCTTAG
The “PBM E-score” value of the first is higher: 0.132 for the first, -0.154 for the second.

Going from AGGTGTGC to ACATTATG, the “PBM E-score” value rises from -0.0657 to 0.211.

Compared with CCCGTGCA, CCTCAGAG is lower in “PBM E-score” value: -0.177 for the first, -0.258 for the second.

Going from CATGCTGA to CAACGCCA, the “PBM E-score” value falls from 0.00121 to -0.0221.

First: TTCCCAAA
Second: TAAAAAGA
The “PBM E-score” value of the first is higher: 0.167 for the first, 0.151 for the second.

Compared with ACGTGCGC, CTTGACAC is higher in “PBM E-score” value: -0.0191 for the first, -0.013 for the second.

First: ATCCGGCC
Second: GCCCTATA
The “PBM E-score” value of the first is higher: 0.101 for the first, -0.0486 for the second.

Going from ATACTGAA to AACACCTG, the “PBM E-score” value rises from 0.101 to 0.11.

First: AGCCGCCG
Second: ATCATACG
The “PBM E-score” value of the first is lower: 0.0419 for the first, 0.0769 for the second.

First: AAGGAACG
Second: ACTTCAGG
The “PBM E-score” value of the first is higher: 0.0874 for the first, 0.0125 for the second.

Compared with AGAACATA, ATACGAGC is lower in “PBM E-score” value: 0.226 for the first, 0.0821 for the second.
